Source: ChEMBL document CHEMBL4699440, “Comprehensive review on the anti-bacterial activity of 1,2,3-triazole hybrids” (Eur J Med Chem, 2019)

Legend:
[1] = tested on: Pseudomonas aeruginosa; experiment: Antibacterial activity against Pseudomonas aeruginosa RCMB-010043 assessed as diameter of inhibition zone at 5 mg/ml by diffusion technique; format: functional
[2] = tested on: Escherichia coli; experiment: Antibacterial activity against Escherichia coli RCMB-010052 assessed as diameter of inhibition zone at 5 mg/ml by diffusion technique; format: functional

Sequence: GENTAMICIN
- inhibition zone (IZ) [1]: 17.3 mm
- inhibition zone (IZ) [2]: 19.9 mm
